From patent US6348195 come the findings set out here.

Sequences of proteins named here, by UniProt entry; tags and fusion partners are left off. Residues count along the entry.
UniProt P15328, residues 25-234: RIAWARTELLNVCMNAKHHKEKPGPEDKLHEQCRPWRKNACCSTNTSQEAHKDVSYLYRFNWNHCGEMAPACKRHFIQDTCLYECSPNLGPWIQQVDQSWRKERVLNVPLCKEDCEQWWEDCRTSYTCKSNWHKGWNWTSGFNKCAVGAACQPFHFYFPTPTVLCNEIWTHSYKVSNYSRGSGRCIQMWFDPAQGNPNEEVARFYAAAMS

In assay [1] the target is LK26 antigen (human LK26 cancer antigen), on SW620 target cells (human) (UniProt P15328). Kind of assay: binding to SW620 target cells (cell ELISA), compared with the chimeric antibody. A general note: An ELISA detects its analyte on a solid surface through an enzyme-linked reagent.
For assay [2] the target is unchanged. Put plainly: ELISA on SW620 target cells.

These are yes or no findings as the source states them, for the method shown. Some binding calls cover weakened binding; strength is not graded here. For some of these results: Sequences can lack the tags named with a protein.

B1: hybrid antibody: humanized heavy chain from KOL mutagenesis (LK26KOLHuVH) with chimeric LK26 light chain (antibody, human IgG1, V domains shown)
VH: EVQLVESGGGVVQPGRSLRLSCSASGFTFSGYGLSWVRQAPGKGLEWVAMISSGGSYTYYADSVKGRFAISRDNAKNTLFLQMDSLRPEDTGVYFCARHGDDPAWFAYWGQGTPVTVSS
VL: DIELTQSPALMAASPGEKVTITCSVSSSISSNNLHWYQQKSETSPKPWIYGTSNLASGVPLRFRGFGSGTSYSLTISSMEAEDAATYYCQQWSSYPYMYTFGGGTKLEIK
B1: the binding entry in assay [1] is on record as “binds”.

B2: LK26KOLHuVH/HuVKPW,Y (antibody, V domains shown)
VH: EVQLVESGGGVVQPGRSLRLSCSASGFTFSGYGLSWVRQAPGKGLEWVAMISSGGSYTYYADSVKGRFAISRDNAKNTLFLQMDSLRPEDTGVYFCARHGDDPAWFAYWGQGTPVTVSS
VL: DIQLTQSPSSLSASVGDRVTITCSVSSSISSNNLHWYQQKPGKAPKPWIYGTSNLASGVPSRFSGSGSGTDYTFTISSLQPEDIATYYCQQWSSYPYMYTFGQGTKVEIK
As for B2, the binding result in assay [2] is on record as “binds”.

B3: LK26HuVHSLF/HuVKPW,Y (antibody, V domains shown)
VH: QVQLQESGPGLVRPSQTLSLTCTASGFTFSGYGLSWVRQPPGRGLEWVAMISSGGSYTYYADSVKGRVTMLRDTSKNSLFLRLSSVTAADTAVYYCARHGDDPAWFAYWGQGTTVTVSS
VL: DIQLTQSPSSLSASVGDRVTITCSVSSSISSNNLHWYQQKPGKAPKPWIYGTSNLASGVPSRFSGSGSGTDYTFTISSLQPEDIATYYCQQWSSYPYMYTFGQGTKVEIK
As for B3, the binding result in assay [2] is reported as “binds”.

B4: LK26HuVHFAIS,N/HuVKPW,Y (antibody, V domains shown)
VH: QVQLQESGPGLVRPSQTLSLTCTASGFTFSGYGLSWVRQPPGRGLEWVAMISSGGSYTYYADSVKGRFAISRDNSKNQFSLRLSSVTAADTAVYYCARHGDDPAWFAYWGQGSLVTVSS
VL: DIQLTQSPSSLSASVGDRVTITCSVSSSISSNNLHWYQQKPGKAPKPWIYGTSNLASGVPSRFSGSGSGTDYTFTISSLQPEDIATYYCQQWSSYPYMYTFGQGTKVEIK
Turning to B4, the binding result in assay [2] was “binds”.
